Protein sequences, listed by entry. Tags and fused reporters are not part of them.
UniProt P11103: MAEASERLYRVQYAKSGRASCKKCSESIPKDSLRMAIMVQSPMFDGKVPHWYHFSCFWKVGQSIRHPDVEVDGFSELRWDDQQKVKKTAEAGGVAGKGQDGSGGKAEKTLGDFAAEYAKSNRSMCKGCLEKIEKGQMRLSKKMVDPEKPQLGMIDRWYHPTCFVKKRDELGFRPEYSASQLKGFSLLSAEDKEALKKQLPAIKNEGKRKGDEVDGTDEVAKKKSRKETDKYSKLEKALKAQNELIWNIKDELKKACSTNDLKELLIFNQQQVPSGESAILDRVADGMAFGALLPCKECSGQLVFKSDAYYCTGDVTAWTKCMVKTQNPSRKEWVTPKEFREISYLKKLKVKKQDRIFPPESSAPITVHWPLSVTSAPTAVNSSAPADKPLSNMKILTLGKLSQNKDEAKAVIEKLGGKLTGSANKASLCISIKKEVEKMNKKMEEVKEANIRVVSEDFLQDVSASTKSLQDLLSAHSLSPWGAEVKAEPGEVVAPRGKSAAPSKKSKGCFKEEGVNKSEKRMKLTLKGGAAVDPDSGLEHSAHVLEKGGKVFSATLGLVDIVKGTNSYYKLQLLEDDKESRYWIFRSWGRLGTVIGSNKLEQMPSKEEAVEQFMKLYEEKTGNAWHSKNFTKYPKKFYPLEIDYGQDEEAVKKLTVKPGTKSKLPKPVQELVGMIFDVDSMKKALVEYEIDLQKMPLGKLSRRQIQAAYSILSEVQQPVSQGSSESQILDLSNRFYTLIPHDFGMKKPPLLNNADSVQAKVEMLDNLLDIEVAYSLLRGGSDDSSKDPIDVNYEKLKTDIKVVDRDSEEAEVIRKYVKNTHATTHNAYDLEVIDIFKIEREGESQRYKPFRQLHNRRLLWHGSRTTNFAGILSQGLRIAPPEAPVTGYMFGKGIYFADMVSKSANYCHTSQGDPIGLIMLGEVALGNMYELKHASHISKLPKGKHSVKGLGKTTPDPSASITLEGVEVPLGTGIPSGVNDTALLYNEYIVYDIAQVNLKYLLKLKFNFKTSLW

In article PMC6062506:

Molecular target: Poly (ADP-ribose) polymerase 1 (PARP1), endogenous in mouse liver (mouse (endogenous in liver)) (UniProt P11103)
Assay: affinity purification with mass spectrometry; anti-PARP1 antibody or IgG with extracts of APAP-treated mouse liver overnight at 4 °C, protein-A/G agarose; silver staining; band around 50 kDa subjected to LC-MS/MS

binding: binds
B1: pregnane X receptor (PXR), endogenous in mouse liver (receptor, UniProt O54915 1-431)
chain: MRPEESWSRVGLVQCEEADSALEEPINVEEEDGGLQICRVCGDKANGYHFNVMTCEGCKGFFRRAMKRNVRLRCPFRKGTCEITRKTRRQCQACRLRKCLESGMKKEMIMSDAAVEQRRALIKRKKREKIEAPPPGGQGLTEEQQALIQELMDAQMQTFDTTFSHFKDFRLPAVFHSGCELPEFLQASLLEDPATWSQIMKDRVPMKISLQLRGEDGSIWNYQPPSKSDGKEIIPLLPHLADVSTYMFKGVINFAKVISYFRDLPIEDQISLLKGATFEMCILRFNTMFDTETGTWECGRLAYCFEDPNGGFQKLLLDPLMKFHCMLKKLQLHKEEYVLMQAISLFSPDRPGVVQRSVVDQLQERFALTLKAYIECSRPYPAHRFLFLKIMAVLTELRSINAQQTQQLLRIQDSHPFATPLMQELFSSTDG

These are yes or no findings as the source states them, for the method shown. Binding seen in cells or lysates may run through a third protein. These calls come from enrichment with a bait or labelling near it, and not all partners need be listed.
